According to PubChem BioAssay AID328 (DTP/NCI, 2004):
The list is a part of this screen's results and no random one: it is rich in T/C values a quarter to a half above the control, in often repeated tests (any T/C) and in doses without a T/C. Further doses and runs are listed elsewhere. T/C is the treated group as % of the vehicle group. Some entries give survivors of the animals treated and no T/C: the source files T/C as zero there, which appears to mark a toxic dose or a test without result, not a measured value. Some doses without a T/C left all or most animals alive at the check, yet need not have been tolerated: the source hardly ever lists a survival T/C far under the control, and the zero likely stands for such cases as well. Survivors were counted at the toxicity check, usually on the fifth day, unless a day is given; later deaths do not show. Schedule codes are those of the source, taken here to give the interval after Q, in days (D) or hours (H), and the number of doses after X. Some entries hold several experiments; their values stand side by side, smallest first. Where survival is the endpoint, this PubChem deposit counts one and a half times the control or more as active, and values a quarter to a half above the control carry no call in these data; other NCI protocols may use other cut-offs. Some T/C values carry the count of animals alive at the toxicity check (mostly the fifth day); without a count, all were alive then.

System: BDF1 mice, P388 leukemia ip, median survival T/C
Assay: NCI In Vivo Anticancer Drug Screen. Data for tumor model P388 Leukemia (intraperitoneal) in B6D2F1 (BDF1) mice
Settings: T/C endpoint: median survival time, higher T/C = longer survival
In short: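 In tumour-bearing mice, survival after compound treatment is set against the vehicle group and given as a quotient.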

[1] = dose: 25.0 mg/kg/injection, schedule: Q01DX009 (ip), vehicle: saline with Tween-80
[2] = dose: 100.0 mg/kg/injection, schedule: Q01DX009 (ip), vehicle: saline with Tween-80
[3] = dose: 150.0 mg/kg/injection, schedule: Q04DX003 (ip), vehicle: saline with Tween-80
[4] = dose: 400.0 mg/kg/injection, schedule: Q04DX003 (ip), vehicle: saline with Tween-80
[5] = dose: 25.0 mg/kg/injection, schedule: Q01DX009 (ip), vehicle: Klucel (hydroxypropylcellulose) (HPC)
[6] = dose: 400.0 mg/kg/injection, schedule: Q01DX009 (ip), vehicle: saline with Tween-80
[7] = dose: 12.5 mg/kg/injection, schedule: Q01DX009 (ip), vehicle: saline with Tween-80
[8] = dose: 150.0 mg/kg/injection, schedule: Q04DX003 (ip), vehicle: Klucel (hydroxypropylcellulose) (HPC)
[9] = dose: 50.0 mg/kg/injection, schedule: Q01DX009 (ip), vehicle: saline with Tween-80
[10] = dose: 200.0 mg/kg/injection, schedule: Q01DX009 (ip), vehicle: gum acacia
[11] = dose: 200.0 mg/kg/injection, schedule: Q01DX009 (ip), vehicle: saline with Tween-80
[12] = dose: 50.0 mg/kg/injection, schedule: Q01DX009 (ip), vehicle: Klucel (hydroxypropylcellulose) (HPC)

SMILES: C[C@@H]1C[C@@H]([C@@H](CC2CC(=O)NC(=O)C2)OC(=O)CC(=O)c2ccccc2)C(=O)[C@@H](C)C1
- T/C (dose: 16.5 mg/kg/injection, schedule: Q01DX009 (ip), vehicle: saline with Tween-80): 140 % of control
- T/C [1]: 131 % of control
- T/C (dose: 66.0 mg/kg/injection, schedule: Q04DX003 (ip), vehicle: saline with Tween-80): 131 and 140 % of control
- survivor count [2]: 5 of 6
- T/C (dose: 100.0 mg/kg/injection, schedule: Q04DX003 (ip), vehicle: saline with Tween-80): 117, 122, 140, 145 % of control
- T/C [3]: 140 % of control
- survivor count [3]: 4 of 6
- survivor count (dose: 200.0 mg/kg/injection, schedule: Q04DX003 (ip), vehicle: saline with Tween-80): 6 of 6
- survivor count [4]: 1 of 6

SMILES: O=C(O)c1cc2ccccc2c2cc(Br)ccc12
- survivor count [4]: 6 of 6

SMILES: CN=C(N)c1ccc(NC(=O)c2ccc(C(=O)Nc3ccc(C(N)=NC)cc3)c(N)c2)cc1
- T/C (dose: 5.0 mg/kg/injection, schedule: Q04DX003 (ip), vehicle: Klucel (hydroxypropylcellulose) (HPC)): 130, 135, 145 % of control
- T/C (dose: 9.0 mg/kg/injection, schedule: Q01DX009 (ip), vehicle: Klucel (hydroxypropylcellulose) (HPC)): 131 % of control
- survivor count (dose: 12.5 mg/kg/injection, schedule: Q01DX009 (ip), vehicle: Klucel (hydroxypropylcellulose) (HPC)): 6 of 6
- survivor count [5]: 1 of 6
- survivor count (dose: 25.0 mg/kg/injection, schedule: Q04DX003 (ip), vehicle: Klucel (hydroxypropylcellulose) (HPC)): 5 of 6
- survivor count (dose: 50.0 mg/kg/injection, schedule: Q04DX003 (ip), vehicle: Klucel (hydroxypropylcellulose) (HPC)): 0 of 6
- survivor count (dose: 100.0 mg/kg/injection, schedule: Q04DX003 (ip), vehicle: Klucel (hydroxypropylcellulose) (HPC)): 0 of 6
- survivor count (dose: 200.0 mg/kg/injection, schedule: Q04DX003 (ip), vehicle: Klucel (hydroxypropylcellulose) (HPC)): 0 of 6
- survivor count (dose: 400.0 mg/kg/injection, schedule: Q04DX003 (ip), vehicle: Klucel (hydroxypropylcellulose) (HPC)): 0 of 6

SMILES: CCOC(=O)C(NC(C)=O)(C(=O)OCC)C(C)C(=O)c1ccc(OC)c(OC)c1OCc1ccccc1 (stereo not drawn)
- survivor count (dose: 100.0 mg/kg/injection, schedule: Q01DX009 (ip), vehicle: saline): 6 of 6

SMILES: COC(=O)C1c2cc3c(c(O)c2CCC1(C)O)C(=O)c1c(O)cc2c(c1C3=O)OC1OC2(C)C(O)C(N(C)C)C1O (stereo not drawn)
- T/C (dose: 16.0 mg/kg/injection, schedule: Q01DX009 (ip), vehicle: saline): 140 % of control
- T/C (dose: 25.0 mg/kg/injection, schedule: Q01DX010 (ip), vehicle: saline): 125 % of control
- T/C (dose: 50.0 mg/kg/injection, schedule: Q01DX010 (ip), vehicle: saline): 130 % of control
- T/C (dose: 100.0 mg/kg/injection, schedule: Q01DX010 (ip), vehicle: saline): 130 % of control

SMILES: CC(/C=N/N=C(N)N)=N\NC(N)=S
- survivor count [6]: 0 of 6

SMILES: Cc1ccc(C(=O)[O][Hg][CH2]C2COC([CH2][Hg][O]C(=O)c3ccc(C)cc3)CO2)cc1 (stereo not drawn)
- T/C (dose: 4.5 mg/kg/injection, schedule: Q01DX009 (ip), vehicle: saline with Tween-80): 136 % of control
- T/C (dose: 8.25 mg/kg/injection, schedule: Q01DX009 (ip), vehicle: saline with Tween-80): 136 % of control
- T/C (dose: 9.0 mg/kg/injection, schedule: Q01DX009 (ip), vehicle: saline with Tween-80): 136 % of control
- T/C (dose: 12.5 mg/kg/injection, schedule: Q01DX009 (ip), vehicle: saline sonified): 135 % of control
- T/C [7]: 131 % of control
- T/C (dose: 18.75 mg/kg/injection, schedule: Q01DX009 (ip), vehicle: saline with Tween-80): 127 % of control
- survivor count [8]: 0 of 6 and 3 of 6
- survivor count (dose: 225.0 mg/kg/injection, schedule: Q04DX003 (ip), vehicle: Klucel (hydroxypropylcellulose) (HPC)): 0 of 6
- survivor count (dose: 335.0 mg/kg/injection, schedule: Q04DX003 (ip), vehicle: Klucel (hydroxypropylcellulose) (HPC)): 0 of 6 and 1 of 6

SMILES: O=C1OCCN1/N=C/C=N/N1CCOC1=O
- survivor count [7]: 5 of 7
- survivor count [1]: 7 of 7
- survivor count [9]: 7 of 7

SMILES: O=NN(CCBr)C(=O)NC1CCCCC1
- T/C [7]: 140 % of control
- T/C [1]: 145 % of control
- T/C [9]: 125 and 127 % of control
- T/C [2]: 130 and 133 % of control [5 of 6 alive]
- T/C [10]: 130 % of control
- survivor count [10]: 5 of 6
- survivor count [6]: 3 of 6
- survivor count [4]: 5 of 6

SMILES: CC(NC(=O)C(N)CSC(c1ccccc1)(c1ccccc1)c1ccccc1)C(=O)O (stereo not drawn)
- T/C (dose: 133.0 mg/kg/injection, schedule: Q04DX003 (ip), vehicle: saline with Tween-80): 140 % of control
- T/C (dose: 133.0 mg/kg/injection, schedule: Q04DX003 (ip), vehicle: saline): 131 % of control
- survivor count (dose: 200.0 mg/kg/injection, schedule: Q04DX003 (ip), vehicle: saline): 2 of 6
- survivor count (dose: 300.0 mg/kg/injection, schedule: Q04DX003 (ip), vehicle: saline with Tween-80): 3 of 6
- survivor count (dose: 300.0 mg/kg/injection, schedule: Q04DX003 (ip), vehicle: saline): 0 of 6

SMILES: NC(CCC(=O)NC(CSC(c1ccccc1)(c1ccccc1)c1ccc(F)cc1)C(=O)NCC(=O)O)C(=O)O (stereo not drawn)
- T/C (dose: 75.0 mg/kg/injection, schedule: Q04DX003 (ip), vehicle: saline): 131 % of control
- T/C (dose: 177.0 mg/kg/injection, schedule: Q04DX003 (ip), vehicle: saline): 145 % of control
- survivor count (dose: 400.0 mg/kg/injection, schedule: Q04DX003 (ip), vehicle: saline): 3 of 6
- survivor count (dose: 600.0 mg/kg/injection, schedule: Q04DX003 (ip), vehicle: saline with Tween-80): 2 of 6
- survivor count (dose: 600.0 mg/kg/injection, schedule: Q04DX003 (ip), vehicle: saline): 4 of 6

SMILES: O=C(Cl)C1CCCCC1
- survivor count [11]: 5 of 6

SMILES: CCN1CC1
- survivor count [5]: 0 of 6

SMILES: CCOC(=O)c1cc[nH]c1CC(=O)NC
- T/C (dose: 100.0 mg/kg/injection, schedule: Q01DX001 (ip), vehicle: saline with Tween-80): 127 % of control

SMILES: CCCCCCC1CCC(N)CC1 (stereo not drawn)
- survivor count [12]: 6 of 6

SMILES: C1=CC23C4CCC2C2C4C4C(=C1)C3C2N1CCCCC41 (stereo not drawn)
- survivor count (dose: 75.0 mg/kg/injection, schedule: Q01DX009 (ip), vehicle: Klucel (hydroxypropylcellulose) (HPC)): 4 of 6
- survivor count (dose: 115.0 mg/kg/injection, schedule: Q01DX009 (ip), vehicle: Klucel (hydroxypropylcellulose) (HPC)): 1 of 6
- survivor count [8]: 0 of 6
- survivor count (dose: 170.0 mg/kg/injection, schedule: Q01DX009 (ip), vehicle: Klucel (hydroxypropylcellulose) (HPC)): 0 of 6

SMILES: [Cl][Rh][Cl].c1cn[nH]c1.c1cn[nH]c1.c1cn[nH]c1.c1cn[nH]c1
- survivor count [12]: 4 of 6

SMILES: CC1(C)CC2C(=O)c3ccccc3NC2c2ccccc21 (stereo not drawn)
- T/C (dose: 400.0 mg/kg/injection, schedule: Q01DX009 (ip), vehicle: Klucel (hydroxypropylcellulose) (HPC)): 125 % of control

SMILES: OCC1OC(OC2(CO)OC(CO)C(O)C2O)C(O)C(O)C1O (stereo not drawn)
- T/C (dose: 11.0 mg/kg/injection, schedule: Q01DX009 (ip), vehicle: saline): 135 % of control

SMILES: COC1CC(N=[N+]=[N-])C(OS(C)(=O)=O)C(C)O1 (stereo not drawn)
- survivor count [9]: 5 of 6
- survivor count [2]: 5 of 6
- survivor count [11]: 5 of 6
- survivor count [6]: 5 of 6

SMILES: O=C(O)c1c(Cl)c(Cl)c(Cl)c(C(=O)O)c1Cl
- survivor count (dose: 200.0 mg/kg/injection, schedule: Q01DX009 (ip), vehicle: Klucel (hydroxypropylcellulose) (HPC)): 6 of 6

SMILES: CC(=O)Nc1ccc2c(c1)OCO2
- survivor count [4]: 3 of 6

SMILES: ClC1OC(Cl)C(Cl)OC1Cl (stereo not drawn)
- survivor count [5]: 6 of 6
